The record followed here is publication PMC11958753.

The target in assay [1] is T1, activating transcription factor 4 (ATF4) (rat (endogenous in primary cortical neurons)) (UniProt Q9ES19).
T1 sequence: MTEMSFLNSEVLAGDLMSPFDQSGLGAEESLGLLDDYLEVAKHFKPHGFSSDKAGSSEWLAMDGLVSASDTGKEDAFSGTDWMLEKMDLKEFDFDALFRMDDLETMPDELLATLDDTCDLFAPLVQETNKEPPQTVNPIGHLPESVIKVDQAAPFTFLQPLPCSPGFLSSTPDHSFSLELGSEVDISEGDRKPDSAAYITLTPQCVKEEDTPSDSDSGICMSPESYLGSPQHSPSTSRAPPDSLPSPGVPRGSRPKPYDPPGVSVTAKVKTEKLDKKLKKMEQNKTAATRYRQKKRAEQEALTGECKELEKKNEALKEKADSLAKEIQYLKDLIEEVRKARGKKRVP
Put plainly: co-IP; anti-ATF4 (D4B8) or control IgG cross-linked to protein A magnetic beads, mixed with 500 µg RIPA lysate of cortical neurons overnight at 4 °C; washed with RIPA; eluted with 0.2 M glycine pH 2.5; CREB3L2 detected by immunoblot; neurons treated with DMSO, thapsigargin or bortezomib for 5 h. For orientation: A western blot detects proteins with antibodies after separation by electrophoresis.

Assay [2] addresses T1, activating transcription factor 4 (ATF4) (rat (endogenous in primary cortical neurons)). Briefly: proximity ligation; Duolink In situ Red PLA on fixed, permeabilised primary rat cortical neurons with rabbit anti-CREB3L2 and mouse anti-ATF4; puncta counted per area of soma or in nuclei; neurons treated with vehicle, Aβ42 (8 h), thapsigargin, bortezomib (5 h), nelfinavir or BtdCPU.

No constants are given. Whether binding was seen depends on the method and setting. Binding seen in cells or lysates may run through a third protein. Some binding calls cover weakened binding; strength is not graded here.

B1: cyclic AMP-responsive element-binding protein 3-like protein 2 (CREB3L2) (protein, UniProt Q6QDP7 1-521)
chain: MEVLESGEQSVLQWDRKLSELSEPGETEALMYHTHFSELLDEFSQNVLGQLLNDPFLSEKSVSMEVEPSPTSPAPLIQAEHSYSLSEEPRAQSPFTHVAASDGFNDEEVESEKWYLSTEFPSATIKTEPITEEQPPGLVPSVTLTITAISTPFEKEESPLDMSAGGDSSCQTLIPKIKLEPHEVDQFLNFSPKEASVDQLHLPPTPPSSHSSDSEGSLSPNPRLHPFSLSQAHSPGRAMPRGPSALSTSPLLTAPHKLQGSGPLVLTEEEKRTLIAEGYPIPTKLPLTKSEEKALKKIRRKIKNKISAQESRRKKKEYMDSLEKKVESCSTENLELRKKVEVLENTNRTLLQQLQKLQTLVMGKVSRTCKLAGTQTGTCLMVVVLCFAVAFGSLFQGYGLYPSATKMALPSQHPLSEPYTASVVRSRNLLIYEEHSSLEESSSPASAGELGGWDRGSSLLRASSGLEALPEVDLPHFIISKETSLEKSVLLELQQHLVSSKLEGNETLKVVELERRVNATF
B1: the binding entry in assay [1] and in assay [2] was “binds” throughout.
